Measurements reported in PubChem BioAssay AID602196 (INSERM, 2012).
This is a random part of about 23,000 reagents. 455 of them (2%) were called active. 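Active includes both protection and sensitisation; some change values fall well beyond the stated -50 to +50 range.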 Not all columns of the deposit are shown. Not given: the amount of reagent.

Assay: 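Modifiers of cisplatin sensitivity in A549 cells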
Cell system: human A549 lung cancer cells
Reagent: siRNA pair against human genes
Duration: 48 h transfection before cisplatin; time from cisplatin to read-out not stated
Conditions: cisplatin at a dose killing half of control-siRNA cells; exact dose and duration not given
Measurement: 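Shift in cisplatin death relative to control siRNA, from -50 (all cells die) to +50 (no cells die); siRNAs harmful on their own scored 0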
Scale: two-siRNA summed score (-2 to +2): higher = both siRNAs protect from cisplatin killing; -2 means both sensitise
Active means: 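Each siRNA scores 0 if harmful alone by LDH or WST-1, otherwise +1 if it reduces and -1 if it increases cisplatin killing; a gene is active when both siRNAs agree (sum +2 or -2)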
Calls: active = both siRNAs shift cisplatin killing the same way; inactive = no consistent shift, or siRNA harmful alone

no.	gene knocked down	PubChem SID	two-siRNA summed score (-2 to +2)	activity call
1	CNNM3	SID131501408	-1	inactive
2	PYDC1	SID131508074	0	inactive
3	LOC390529	SID131521281	1	inactive
4	FRG2C	SID131511720	0	inactive
5	SLC34A3	SID131517654	0	inactive
6	LMTK3	SID131515240	0	inactive
7	SDR42E1	SID131504589	0	inactive
8	LOC441340	SID131501892	-1	inactive
9	PCSK4	SID131502861	0	inactive
10	CEMIP2	SID131510599	0	inactive
11	LOC441631	SID131510354	0	inactive
12	RSRP1	SID131520812	1	inactive
13	CERS3	SID131509700	0	inactive
14	KCNK13	SID131508120	0	inactive
15	LOC442613	SID131518058	0	inactive
16	ZNF675	SID131501237	-1	inactive
17	CORO1A	SID131504676	0	inactive
18	TRADD	SID131505334	0	inactive
19	GSE1	SID131507067	0	inactive
20	INTS7	SID131511993	0	inactive
21	DCST1	SID131518501	0	inactive
22	CNOT9	SID131516843	0	inactive
23	LOC400552	SID131506432	0	inactive
24	DNAJC30	SID131509400	0	inactive
25	DHX15	SID131519075	1	inactive
26	LOC284901	SID131511568	0	inactive
27	MUC12	SID131505838	0	inactive
28	PLK1	SID131516424	0	inactive
29	LOC388648	SID131516377	0	inactive
30	CA5A	SID131507338	0	inactive
31	MTFP1	SID131521361	1	inactive
32	AIDA	SID131507852	0	inactive
33	LOC339979	SID131519692	1	inactive
34	LOC440517	SID131518215	0	inactive
35	LYRM1	SID131511820	0	inactive
36	PRKAR1A	SID131514143	0	inactive
37	PHTF1	SID131523202	2	active
38	SNX11	SID131521702	1	inactive
39	TMEM181	SID131507267	0	inactive
40	NKD2	SID131518041	0	inactive
41	LRRIQ1	SID131508612	0	inactive
42	SLC34A1	SID131501715	-1	inactive
43	ANXA1	SID131507070	0	inactive
44	MYBPC1	SID131506383	0	inactive
45	CLEC12B	SID131517438	0	inactive

Records listed so far whose target name starts with L or l (12):
gene knocked down	PubChem SID	two-siRNA summed score (-2 to +2)	activity call
LOC390529	SID131521281	1	inactive
LMTK3	SID131515240	0	inactive
LOC441340	SID131501892	-1	inactive
LOC441631	SID131510354	0	inactive
LOC442613	SID131518058	0	inactive
LOC400552	SID131506432	0	inactive
LOC284901	SID131511568	0	inactive
LOC388648	SID131516377	0	inactive
LOC339979	SID131519692	1	inactive
LOC440517	SID131518215	0	inactive
LYRM1	SID131511820	0	inactive
LRRIQ1	SID131508612	0	inactive

Next records follow.
no.	gene knocked down	PubChem SID	two-siRNA summed score (-2 to +2)	activity call
46	LOC400263	SID131513278	0	inactive
47	ZMIZ1-AS1	SID131509649	0	inactive
48	LOC442255	SID131510711	0	inactive
49	SLC41A1	SID131510149	0	inactive
50	LOC389534	SID131521514	1	inactive
51	LOC402377	SID131515840	0	inactive
52	MAGEA6	SID131511259	0	inactive
53	GATA2	SID131519387	1	inactive
54	KLC1	SID131500845	-1	inactive
55	KLC1	SID131502874	0	inactive
56	YBX1	SID131510309	0	inactive
57	TNRC6A	SID131517629	0	inactive
58	P3H2	SID131520911	1	inactive
59	LOC389457	SID131522477	1	inactive
60	LOC390754	SID131518771	0	inactive
61	LOC390299	SID131513479	0	inactive
62	FOSL2	SID131508588	0	inactive
63	AMOT	SID131512655	0	inactive
64	TCP1	SID131506446	0	inactive
65	ZNF503-AS2	SID131522846	1	inactive
66	RNF121	SID131519121	1	inactive
67	JDP2	SID131519544	1	inactive
68	CACNA2D3	SID131505423	0	inactive
69	GAS2L3	SID131520932	1	inactive
70	SLC40A1	SID131514975	0	inactive
71	NMB	SID131509537	0	inactive
72	RFX5	SID131521916	1	inactive
73	CPVL	SID131500528	-1	inactive
